According to patent US5004565A, “Method and compositions providing enhanced chemiluminescence from 1,2-dioxetanes” (priority 1988, dated 1991):

Legend:
[1] = Fluoride-triggered chemiluminescence of silyl-protected dioxetane
[2] = test system: alkaline phosphatase from bovine intestinal mucosa; experiment: Triggering of 2c with alkaline phosphatase from bovine intestinal mucosa; format: biochemical
From the text: The chemiluminescence quantum yield (.PHI.CL) for the decomposition of dioxetanes is defined as the ratio of einsteins of chemiluminescence emitted to moles of dioxetane decomposed. Sufficient energy is released during the reaction from the reaction enthalpy (ΔHR) plus the Arrhenius activation energy (Ea) to populate the singlet excited state of one of the carbonyl cleavage products. Therefore, the maximum quantum yield is 1.0. Another parameter of interest is the chemiexcitation quantum yield (.PHI.CE) which is defined as the ratio of excited states formed to dioxetane decomposed.
The same procedure as those employed in the measurement of the decay kinetics was used for the determination of chemiluminescence quantum yields with the following modifications. An accurately measured aliquot of a dioxetane stock solution of known concentration was added to 3 mL of the pre-thermostatted organic solvent or aqueous buffer. The reaction was then triggered by adding the appropriate chemical reagent or enzyme. The total light intensity was integrated by a photon-counting luminometer using an RCA A-31034A gallium-arsenide PMT cooled to -78° C.
2. Triggering the Chemiluminescence of 2c with Alkaline Phosphatase from Bovine Intestinal Mucosa. Alkaline phosphatase from bovine intestinal mucosa was obtained from Sigma Chemical Co. as a suspension of 5.1 mg of protein per mL of 3.2 M (NH4)2 SO4 solution.
3. […] Alkaline phosphatase experiments with dioxetane 2c were conducted at 37° C. with 3 mL of a solution containing: 2c (4.3×10^-5 M), 221 buffer (0.75 M, pH 9.1), Mg(OAc)2 (8.0×10^-4 M), CTAB (1.13×10^-3 M), and fluorescein surfactant 3 (5.6×10^-5 M). […]
Enzymatic triggering experiments such as those described above were also carried out in Immumlon™ microtitre wells from Dynatech, Inc. made of transparent polystyrene. […] The chemiluminescence was detected at the bottom of the well using a fiber optic connected to the photon-counting luminometer described previously. […]

[3] = Base-triggered chemiluminescence in DMSO or water; settings: for chemiluminescence quantum yield (ΦCl): base
[4] = Base-triggered chemiluminescence in aqueous CTAB micelles, with or without fluorescent co-surfactant
[5] = CTAB 1.5×10^-3 M with fluorescein surfactant 3 (9×10^-5 M), base, 37° C.

COC1(c2cccc(O[Si](C)(C)C(C)(C)C)c2)OOC12C1CC3CC(C1)CC2C3 (centres unmarked)
efficiency for the formation of the singlet excited ester (singlet chemiexcitation) ([1]; corrected for fluorescence quantum yield): 57% | chemiluminescence efficiency ([1]; fluoride-triggered): 25% | chemiluminescence maximum ([1]; fluoride-triggered, DMSO): 470 nm

COC1(c2cccc(OP(=O)(O)O)c2)OOC12C1CC3CC(C1)CC2C3 (centres unmarked) [dioxetane 2c, 4-Methoxy-4-(3-phosphatephenyl)spiro[1,2-dioxetane-3,2'-adamantane], disodium salt]
chemiluminescence quantum yield (ΦCl) ([2]; with CTAB (1.13×10^-3), no fluorescer): 2.1×10^-4 | chemiluminescence quantum yield (ΦCl) ([2]; with CTAB (1.13×10^-3 M) and fluorescein surfactant 3 (5.6×10^-5 M), pH 9.1, 37° C.): 0.015 | chemiluminescence efficiency ([2]; with CTAB and fluorescein surfactant 3): 1.5%

COC(=O)c1cccc(O)c1 [methyl 3-hydroxylbenzoate, methyl 3-hydroxybenzoate]
fluorescence quantum yield of the ester (ΦF) ([1]; same conditions as fluoride-triggered decomposition): 0.44 | fluorescence of cleavage product in water ([3]; water): only weakly fluorescent

COC1(c2cccc(OC(C)=O)c2)OOC12C1CC3CC(C1)CC2C3 (centres unmarked) [dioxetane 2b]
chemiluminescence quantum yield (ΦCl) ([3]; DMSO): 0.25 | chemiluminescence efficiency [4, 5]: 1.4% | chemiluminescence quantum yield (ΦCL) [4, 5]: 0.014 | chemiluminescence quantum yield (ΦCl) ([4]; CTAB micelles above cmc, NaOH, 37° C., no fluorescer): 1.7×10^-4 | increase over the luminescence in the absence of CTAB and 3 ([4]; CTAB with fluorescein surfactant 3, base, 37° C.): 500 fold | increase in chemiluminescence quantum yield ([4]; above the critical micelle concentration for CTAB, no fluorescer): 19 fold

COC1(c2cccc(O)c2)OOC12C1CC3CC(C1)CC2C3 (centres unmarked) [dioxetane 2a, 4-(3-Hydroxyphenyl)-4-methoxyspiro[1,2-dioxetane-3,2'-adamantane]]
emission maximum for the chemiluminescence ([3]; DMSO, tetra-n-butylammonium hydroxide, room temperature): 470 nm | chemiluminescence quantum yield (ΦCl) ([3]; DMSO): 0.25

CCCCCCCCCCCCCCCCNC(=O)c1nc2ccc(O)cc2s1 [compound 4, 1-Hexadecyl-6-hydroxy-2-benzothiazamide]
λmax of chemiluminescence ([4]; benzothiazamide surfactant 4 as co-surfactant): 506 nm

Where a name gives a salt, the structure may show the parent alone.
